For at least one compound, name, drawing or mass did not settle the structure.
Key:
[1] = tested on: Tregs, myeloid derived suppressor cells and PD-1+CD8 T cells; assay: Flow cytometry of cells isolated from subcutaneous tumors; assay type: in vivo, mouse; conditions: Sutent 20 mg/kg for 28 days, versus cancer vaccine only
phosphorylated STAT3 = assay: Phosphor-STAT3 ELISA of spleen extracts of TUBO tumor bearing BALB/neuT mice after Sutent; assay type: in vivo, mouse; conditions: Sutent 20 mg/kg oral gavage
Procedure: The acute effect of Sutent on the phosphorylation status of STAT3 in the spleen was investigated in a subcutaneous tumor mouse model to evaluate the direct immunomodulatory effects of the compound. Briefly, 10-12 week old female BALB/neuT mice were implanted with 1e6 TUBO cells subcutaneously in the right flank. After forty one days post tumor implant, Sutent was given by oral gavage at 20 mg/kg. At 0, 1, 3, 7 and 24 hrs post Sutent dosing, three animals per timepoint were sacrificed under IAUCUC guidelines and spleens were immediately snap frozen in liquid nitrogen to preserve the phosphorylation status. Spleens from female BALB/c mice were snap frozen to use as healthy mice controls.
Snap frozen spleens were homogenized at 100 mg tissue per 500 μL lysis buffer (70 mM NaCl, 50 mM β-glycerol phosphate, 10 mM HEPES, 1% Triton X-100, 100 mM Na3VO4, 100 mM PMSF, 1 mg/mL leupeptin) using a polytron tissue homogenizer. Resulting digests were centrifuged at 10,000 g for 15 minutes. The supernatant was isolated and protein concentrations were determined using BCA protein assay kit (Pierce, Rockford, Ill.). Forty micrograms of protein were added to each well of either a total STAT3 (eBioscience, cat no. 85-86101-11) or phosphor-STAT3 (eBioscience, cat no. 85-86102-11) ELISA Kit. Relative levels of either protein were compared with standards provided in the kit and with standards purchased independently (Signaling Technologies, cat no. 9333-S).

**Q.** What does the source list for `CCN(CC)CCNC(=O)c1c(C)[nH]c(/C=C2\C(=O)Nc3ccc(F)cc32)c1C` [Sunitinib, butanedioic acid, hydroxy-, (2S)-, compound with N-[2-(diethylamino)ethyl]-5-[(Z)-(5-fluoro-1,2-dihydro-2-oxo-3H-indol-3-ylidine)methyl]-2,4-dimethyl-1H-pyrrole-3-carboxamide (1:1)]?
**A.** PD-1+CD8 T cells in the tumor ([1]; FIG. 36C): reduction of PD-1+CD8 T cells; immune suppressive Tregs or MDSC found in the tumor ([1]; FIGS. 36A, 36B): significant reduction; phosphorylation levels of STAT3 in the spleen (phosphorylated STAT3; 1 hr after treatment): rapidly decreased to levels similar to healthy animals; phosphorylation levels of STAT3 in the spleen (phosphorylated STAT3; at 24 hrs): completely recovered to levels before Sutent treatment; phosphorylation levels of STAT3 in the spleen (phosphorylated STAT3; up to 7 hrs): maintained at lower levels than the untreated mice
